Experimental data from paper PMC5917001, “Counter-ion effect on antistaphylococcal activity and cytotoxicity of selected antimicrobial peptides” (Amino Acids, 2018).
Counter-ions that a name gives are not always drawn. Where a SMILES comes first, the peptide text is derived from it.

These molecules were tested on human keratinocytes (HaCaT). Conditions: IC50 on HaCaT divided by mean MIC on S. aureus strains.

Structure (SMILES) | Selectivity index (IC50/MIC)
CC[C@H](C)[C@H](NC(=O)[C@H](CCCCN)NC(=O)[C@H](CCCCN)NC(=O)[C@H](Cc1ccccc1)NC(=O)[C@H](CC(C)C)NC(=O)[C@H](CCCCN)NC(=O)[C@H](Cc1c[nH]c2ccccc12)NC(=O)[C@@H](N)CCCCN)C(=O)NCC(=O)N[C@@H](C)C(=O)N[C@H](C(=O)N[C@@H](CC(C)C)C(=O)N[C@@H](CCCCN)C(=O)N[C@H](C(=O)N[C@@H](CC(C)C)C(N)=O)C(C)C)C(C)C [CAMEL TFA^−] (H-KWKLFKKIGAVLKVL-NH2; N-terminus assumed) | ≥ 0.95
CC[C@H](C)[C@H](NC(=O)CNC(=O)[C@H](CO)NC(=O)[C@H](CC(C)C)NC(=O)[C@@H](NC(=O)[C@H](CCCNC(=N)N)NC(=O)CNC(=O)[C@@H](NC(=O)[C@H](CC(C)C)NC(=O)[C@@H]1CCCN1C(=O)[C@H](CC(C)C)NC(=O)[C@@H](N)Cc1ccccc1)[C@@H](C)CC)C(C)C)C(=O)N[C@@H](CC(C)C)C(N)=O [Temporin A Cl^−] (H-FLPLIGRVLSGIL-NH2; N-terminus assumed) | 0.60
CC[C@H](C)[C@H](NC(=O)[C@@H](NC(=O)[C@H](CO)NC(=O)[C@H](C)NC(=O)[C@@H](NC(=O)[C@H](CCCCN)NC(=O)[C@H](CCCCN)NC(=O)[C@@H](NC(=O)[C@@H](NC(=O)[C@H](CC(=O)O)NC(=O)[C@H](Cc1ccccc1)NC(=O)[C@H](CC(C)C)NC(=O)CN)C(C)C)[C@@H](C)CC)C(C)C)C(C)C)C(=O)NCC(=O)NCC(=O)N[C@@H](CC(C)C)C(N)=O [Citropin 1.1 TFA^−] (H-GLFDVIKKVASVIGGL-NH2; N-terminus assumed) | 0.23
CC[C@H](C)[C@H](NC(=O)[C@@H](NC(=O)[C@H](CO)NC(=O)[C@H](C)NC(=O)[C@@H](NC(=O)[C@H](CCCCN)NC(=O)[C@H](CCCCN)NC(=O)[C@@H](NC(=O)[C@@H](NC(=O)[C@H](CC(=O)O)NC(=O)[C@H](Cc1ccccc1)NC(=O)[C@H](CC(C)C)NC(=O)CN)C(C)C)[C@@H](C)CC)C(C)C)C(C)C)C(=O)NCC(=O)NCC(=O)N[C@@H](CC(C)C)C(N)=O [Citropin 1.1 Cl^−] (H-GLFDVIKKVASVIGGL-NH2; N-terminus assumed) | 0.41
CC[C@H](C)[C@H](NC(=O)[C@H](CCCCN)NC(=O)[C@H](CCCCN)NC(=O)[C@H](Cc1ccccc1)NC(=O)[C@H](CC(C)C)NC(=O)[C@H](CCCCN)NC(=O)[C@H](Cc1c[nH]c2ccccc12)NC(=O)[C@@H](N)CCCCN)C(=O)NCC(=O)N[C@@H](C)C(=O)N[C@H](C(=O)N[C@@H](CC(C)C)C(=O)N[C@@H](CCCCN)C(=O)N[C@H](C(=O)N[C@@H](CC(C)C)C(N)=O)C(C)C)C(C)C [CAMEL AcO^−] (H-KWKLFKKIGAVLKVL-NH2; N-terminus assumed) | ≥ 0.97
CC[C@H](C)[C@H](NC(=O)[C@@H](NC(=O)[C@H](CO)NC(=O)[C@H](C)NC(=O)[C@@H](NC(=O)[C@H](CCCCN)NC(=O)[C@H](CCCCN)NC(=O)[C@@H](NC(=O)[C@@H](NC(=O)[C@H](CC(=O)O)NC(=O)[C@H](Cc1ccccc1)NC(=O)[C@H](CC(C)C)NC(=O)CN)C(C)C)[C@@H](C)CC)C(C)C)C(C)C)C(=O)NCC(=O)NCC(=O)N[C@@H](CC(C)C)C(N)=O [Citropin 1.1 AcO^−] (H-GLFDVIKKVASVIGGL-NH2; N-terminus assumed) | 0.44
CC[C@H](C)[C@H](NC(=O)[C@H](CCCCN)NC(=O)[C@H](CCCCN)NC(=O)[C@H](Cc1ccccc1)NC(=O)[C@H](CC(C)C)NC(=O)[C@H](CCCCN)NC(=O)[C@H](Cc1c[nH]c2ccccc12)NC(=O)[C@@H](N)CCCCN)C(=O)NCC(=O)N[C@@H](C)C(=O)N[C@H](C(=O)N[C@@H](CC(C)C)C(=O)N[C@@H](CCCCN)C(=O)N[C@H](C(=O)N[C@@H](CC(C)C)C(N)=O)C(C)C)C(C)C [CAMEL Cl^−] (H-KWKLFKKIGAVLKVL-NH2; N-terminus assumed) | ≥ 1.25
